Results: the supplement of paper PMC10735217
Counter-ions that a name gives are not always drawn. The list shows a part of the results. This data set is noisy: repeats of one test often differ as much as different tests do.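 The human kidney-derived cells carry a stably integrated construct of eight TEAD-binding elements driving luciferase, read by luminescence in a drug-repurposing library screen. A compound counts as a hit when its signal is more than five robust Z scores above the plate mean.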

Tested on: HEK293A TEAD-LUC reporter
Assay: TEAD-luciferase reporter activity (YAP activation), robust Z score vs plate; higher = stronger YAP/TEAD activation
Settings: 24 h

**Q.** How did the TEAD-luciferase reporter activity (compound concentration: 200 nM) turn out when COc1ccc(CN2C(=O)C(C)SC2c2cccnc2)cc1 (stereo unspecified) was run?
**A.** inactive: -1.1

**Q.** And the TEAD-luciferase reporter activity (compound concentration: 2 uM)?
**A.** inactive: 0.207

**Q.** What about the TEAD-luciferase reporter activity (compound concentration: 10 uM) of the same compound?
**A.** inactive: -1.16

**Q.** With CC(C)NCC(O)COc1ccc(COCCOC(C)C)cc1 (stereo unspecified) [Bisoprolol Hemifumarate] as the compound, how does the TEAD-luciferase reporter activity (compound concentration: 2 uM) read?
**A.** inactive: -0.511

**Q.** CC(C)NCC(O)COc1ccc(COCCOC(C)C)cc1 (stereo unspecified) was tested. Which TEAD-luciferase reporter activity (compound concentration: 200 nM) did it give?
**A.** inactive: -2.13

**Q.** What about the TEAD-luciferase reporter activity (compound concentration: 10 uM) of the same compound?
**A.** inactive: -0.638

**Q.** With CC(=O)NCCc1c(Cc2ccccc2)[nH]c2ccccc12 as the compound, how does the TEAD-luciferase reporter activity (compound concentration: 200 nM) read?
**A.** inactive: -1.52

**Q.** And the TEAD-luciferase reporter activity (compound concentration: 2 uM)?
**A.** inactive: 3.17

**Q.** What about the TEAD-luciferase reporter activity (compound concentration: 10 uM) of the same compound?
**A.** inactive: 0.217

**Q.** Which results are given for CC(C)N1C(=O)C(C)(C)Oc2ccc(C(=O)N=C(N)N)cc21?
**A.** TEAD-luciferase reporter activity (compound concentration: 200 nM): inactive: 1.28; TEAD-luciferase reporter activity (compound concentration: 2 uM): inactive: -0.27; TEAD-luciferase reporter activity (compound concentration: 10 uM): active: 6

**Q.** O=C1NCc2ccccc2CC12CCCCN2Cc1cccc(F)c1F (stereo unspecified) was tested. Which TEAD-luciferase reporter activity (compound concentration: 200 nM) did it give?
**A.** inactive: 0.777

**Q.** And the TEAD-luciferase reporter activity (compound concentration: 10 uM)?
**A.** inactive: -0.735

**Q.** What does the source list for CC[C@H](C)[C@H](NC(=O)OCc1ccccc1)C(=O)N[C@@H](CCC(=O)OC(C)(C)C)C(=O)N[C@@H](C)C(=O)N[C@H](C=O)CC(C)C?
**A.** TEAD-luciferase reporter activity (compound concentration: 200 nM): inactive: -1.29; TEAD-luciferase reporter activity (compound concentration: 10 uM): inactive: 0.283

**Q.** For COc1cc(N)c(Cl)cc1C(=O)NCCC1(N(C)C)CCCCC1, which TEAD-luciferase reporter activity (compound concentration: 200 nM) is on record?
**A.** inactive: -0.247

**Q.** What about the TEAD-luciferase reporter activity (compound concentration: 2 uM) of the same compound?
**A.** inactive: -0.28

**Q.** And the TEAD-luciferase reporter activity (compound concentration: 10 uM)?
**A.** inactive: 1.22

**Q.** Which results are given for NC1=NCC(CN2CCN(c3ccccc3)CC2)O1 (stereo unspecified)?
**A.** TEAD-luciferase reporter activity (compound concentration: 200 nM): inactive: 0.732; TEAD-luciferase reporter activity (compound concentration: 2 uM): inactive: 0.387; TEAD-luciferase reporter activity (compound concentration: 10 uM): inactive: -1.32

**Q.** For CN(C(=O)n1cnc(-c2ccc[n+]([O-])c2)c1)C1CCCCC1, which TEAD-luciferase reporter activity (compound concentration: 200 nM) is on record?
**A.** inactive: 0.198

**Q.** And the TEAD-luciferase reporter activity (compound concentration: 2 uM)?
**A.** inactive: -1.05

**Q.** What about the TEAD-luciferase reporter activity (compound concentration: 10 uM) of the same compound?
**A.** inactive: 0.968

**Q.** CCCCCCCCCCCC(=O)c1c(O)c(C(=O)CCCCCCCCCCC)c(O)c(C2CC(c3ccc(O)cc3)Oc3cc(O)ccc32)c1O (stereo unspecified) was tested. Which TEAD-luciferase reporter activity (compound concentration: 2 uM) did it give?
**A.** inactive: -0.22

**Q.** What about the TEAD-luciferase reporter activity (compound concentration: 10 uM) of the same compound?
**A.** inactive: -1

**Q.** How did the TEAD-luciferase reporter activity (compound concentration: 200 nM) turn out when CCN[C@H]1C[C@H](C)S(=O)(=O)c2sc(S(N)(=O)=O)cc21 was run?
**A.** inactive: -1.25

**Q.** What about the TEAD-luciferase reporter activity (compound concentration: 2 uM) of the same compound?
**A.** inactive: -0.398

**Q.** What about the TEAD-luciferase reporter activity (compound concentration: 10 uM) of the same compound?
**A.** inactive: 4.31

**Q.** With CCN[C@H]1C[C@H](C)S(=O)(=O)c2sc(S(N)(=O)=O)cc21 [Dorzolamide Hydrochloride] as the compound, how does the TEAD-luciferase reporter activity (compound concentration: 2 uM) read?
**A.** inactive: -0.794

**Q.** For CC(C)(Oc1ccc(Cl)cc1)C(=O)N[C@@H](C(=O)N[C@@H]1C(=O)N2[C@@H]1SC(C)(C)[C@@H]2C(=O)O)c1ccccc1, which TEAD-luciferase reporter activity (compound concentration: 200 nM) is on record?
**A.** inactive: 0.377

**Q.** What about the TEAD-luciferase reporter activity (compound concentration: 2 uM) of the same compound?
**A.** inactive: 0.478

**Q.** And the TEAD-luciferase reporter activity (compound concentration: 10 uM)?
**A.** inactive: -1.12

**Q.** CCCCN1CCC(n2c(O)nc3ccccc32)CC1 was tested. Which TEAD-luciferase reporter activity (compound concentration: 200 nM) did it give?
**A.** inactive: 0.246

**Q.** And the TEAD-luciferase reporter activity (compound concentration: 2 uM)?
**A.** inactive: -1.89

**Q.** What about the TEAD-luciferase reporter activity (compound concentration: 10 uM) of the same compound?
**A.** inactive: 2.22

**Q.** Which TEAD-luciferase reporter activity (compound concentration: 200 nM) does the source give for CCCCCCCCCCCCCCCCCCNC(=O)OCC(COC(=O)N(Cc1cccc[n+]1CC)C(C)=O)OC (stereo unspecified) here?
**A.** inactive: -0.0723

**Q.** And the TEAD-luciferase reporter activity (compound concentration: 2 uM)?
**A.** inactive: -1.27

**Q.** What about the TEAD-luciferase reporter activity (compound concentration: 10 uM) of the same compound?
**A.** inactive: -0.225

**Q.** With NS(=O)(=O)c1cc2c(cc1Cl)NC(C(Cl)(Cl)Cl)NS2(=O)=O (stereo unspecified) as the compound, how does the TEAD-luciferase reporter activity (compound concentration: 200 nM) read?
**A.** inactive: 0.379

**Q.** And the TEAD-luciferase reporter activity (compound concentration: 2 uM)?
**A.** inactive: 0.116

**Q.** And the TEAD-luciferase reporter activity (compound concentration: 10 uM)?
**A.** inactive: -1.36

**Q.** Which TEAD-luciferase reporter activity (compound concentration: 200 nM) does the source give for CC[C@H](C)[C@H](NC(=O)[C@H](Cc1ccc(O)cc1)NC(=O)[C@@H](NC(=O)[C@H](CCCNC(=N)N)NC(=O)[C@@H](N)CC(=O)O)C(C)C)C(=O)N[C@@H](Cc1c[nH]cn1)C(=O)N1CCC[C@H]1C(=O)N[C@@H](Cc1ccccc1)C(=O)O [Human angiotensin II] here?
**A.** inactive: 2.08

**Q.** And the TEAD-luciferase reporter activity (compound concentration: 2 uM)?
**A.** inactive: -1.36

**Q.** And the TEAD-luciferase reporter activity (compound concentration: 10 uM)?
**A.** inactive: 3.31

**Q.** How did the TEAD-luciferase reporter activity (compound concentration: 200 nM) turn out when C[C@@H]([C@@H](O)c1ccc(O)cc1)N1CCC(O)(c2ccccc2)CC1 [Traxoprodil] was run?
**A.** inactive: -1.06

**Q.** What about the TEAD-luciferase reporter activity (compound concentration: 2 uM) of the same compound?
**A.** inactive: 0.488

**Q.** And the TEAD-luciferase reporter activity (compound concentration: 10 uM)?
**A.** inactive: 1.22

**Q.** Which TEAD-luciferase reporter activity (compound concentration: 200 nM) does the source give for NC1=N[C@@]2(c3cc(NC(=O)c4ccc(F)cn4)ccc3F)COC[C@H]2CS1 here?
**A.** inactive: -0.603

**Q.** What about the TEAD-luciferase reporter activity (compound concentration: 2 uM) of the same compound?
**A.** inactive: -0.524

**Q.** And the TEAD-luciferase reporter activity (compound concentration: 10 uM)?
**A.** inactive: 0.444

**Q.** How did the TEAD-luciferase reporter activity (compound concentration: 200 nM) turn out when COC(=O)C[C@H]1CCCCN1C(=O)/C=C/c1c(-c2ccccc2)nn2ccccc12 was run?
**A.** inactive: 0.332

**Q.** And the TEAD-luciferase reporter activity (compound concentration: 2 uM)?
**A.** inactive: -0.955

**Q.** What about the TEAD-luciferase reporter activity (compound concentration: 10 uM) of the same compound?
**A.** inactive: -0.205

**Q.** Which results are given for O=C(Cc1ccc(Cl)cc1)Nc1ccc2cnn(CCN3CCCC3)c2c1?
**A.** TEAD-luciferase reporter activity (compound concentration: 200 nM): inactive: -0.925; TEAD-luciferase reporter activity (compound concentration: 2 uM): inactive: -0.968; TEAD-luciferase reporter activity (compound concentration: 10 uM): inactive: -0.953

**Q.** For O=C(O)COc1cccc2c1CCC=C2CCON=C(c1ccccc1)c1cccnc1, which TEAD-luciferase reporter activity (compound concentration: 200 nM) is on record?
**A.** inactive: -0.631

**Q.** And the TEAD-luciferase reporter activity (compound concentration: 2 uM)?
**A.** inactive: 0.364

**Q.** And the TEAD-luciferase reporter activity (compound concentration: 10 uM)?
**A.** inactive: 1.42

**Q.** What does the source list for CCCc1ccc(NS(=O)(=O)Cc2ccccc2)c(=O)n1CC(=O)NCc1cccc(C)c1?
**A.** TEAD-luciferase reporter activity (compound concentration: 200 nM): inactive: 1.18; TEAD-luciferase reporter activity (compound concentration: 2 uM): inactive: -1.14; TEAD-luciferase reporter activity (compound concentration: 10 uM): inactive: 0.289

**Q.** Which TEAD-luciferase reporter activity (compound concentration: 200 nM) does the source give for NCCC(=O)N[C@@H](Cc1cnc[nH]1)C(=O)O [Carnosine] here?
**A.** active: 7.24

**Q.** What about the TEAD-luciferase reporter activity (compound concentration: 2 uM) of the same compound?
**A.** inactive: -2.38

**Q.** What about the TEAD-luciferase reporter activity (compound concentration: 10 uM) of the same compound?
**A.** inactive: 2.94

**Q.** Nc1cc(C(F)(F)F)c(-c2cc(N3CCOCC3)nc(N3CCOCC3)n2)cn1 [buparlisib] was tested. Which TEAD-luciferase reporter activity (compound concentration: 200 nM) did it give?
**A.** inactive: 0.918

**Q.** What about the TEAD-luciferase reporter activity (compound concentration: 2 uM) of the same compound?
**A.** inactive: -0.747

**Q.** What about the TEAD-luciferase reporter activity (compound concentration: 10 uM) of the same compound?
**A.** inactive: 3.69

**Q.** What does the source list for CCCCN(CCCC)CCCC(O)c1ccc(NS(C)(=O)=O)cc1 (stereo unspecified)?
**A.** TEAD-luciferase reporter activity (compound concentration: 200 nM): inactive: -0.982; TEAD-luciferase reporter activity (compound concentration: 2 uM): inactive: 0.648; TEAD-luciferase reporter activity (compound concentration: 10 uM): inactive: 0.287

**Q.** Which TEAD-luciferase reporter activity (compound concentration: 200 nM) does the source give for OB1OCc2cc(F)ccc21 [Tavaborole] here?
**A.** inactive: 0.77

**Q.** What about the TEAD-luciferase reporter activity (compound concentration: 2 uM) of the same compound?
**A.** inactive: 0.922

**Q.** And the TEAD-luciferase reporter activity (compound concentration: 10 uM)?
**A.** inactive: 1.12
